Several values for one entry are separate records, joined by “and”; a condition that tells them apart may be missing. Identical values can stand only once. Counter-ions that a name gives are not always drawn. The list shows a part of the results. Single values of this set are uncertain.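 Yeast growth was read as optical density at 600 nm. The two-hybrid strains grew without histidine, so growth needed the Pex3–Pex19 binding; a compound counted as trypanosome-selective if it cut growth of the trypanosome-pair strain by more than 65% and the human-pair strain by less than 65%.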
Tested on: Saccharomyces cerevisiae HF7c pdr5Δ
Experiment: general growth inhibition of yeast HF7c pdr5Δ in -Leu -Trp medium, relative to DMSO; higher = stronger general growth inhibition
Conditions: 100 µM; 24 h

| Structure (SMILES) | general growth inhibition |
| --- | --- |
| CN1Cc2sccc2C(c2ccc(O)c(O)c2)C1 (stereo not drawn) | 42.9% |
| NCCCCN [Putrescine dihydrochloride] | 47.2% |
| Cc1cccc(C)c1OCC(C)N (stereo not drawn) [Mexiletene hydrochloride] | 47.9% |
| OCCN1CCN(CCCN2c3ccccc3Sc3ccc(Cl)cc32)CC1 [Perphenazine] | 28.6% |
| CC(C)Cc1ccc([C@H](C)C(=O)O)cc1 [S(+)-Ibuprofen] | 71.1% |
| CC(=O)OC[C@H]1O[C@@H]([S-])[C@H](OC(C)=O)[C@@H](OC(C)=O)[C@@H]1OC(C)=O.CCP(CC)CC.[Au+] [Auranofin] | 10.5% |
| CC1CCN=C(N)S1 (racemic) [(±)-AMT hydrochloride] | 7.6% |
| COc1ccc(/C=C/C(=O)Nc2ccccc2C(=O)O)cc1OC [Tranilast] | 6.96% |
| CN(C)c1nc(N)c(C(=O)NC(=N)N)nc1Cl [5-(N,N-Dimethyl)amiloride hydrochloride] | 37.6% |
| CC[N+](C)(C)c1cccc(O)c1 [Edrophonium chloride] | 37.8% |
| CCCCCCCCCCCCCCCCCCOCC(COP(=O)([O-])OCC[N+](C)(C)C)OC (stereo not drawn) | 89.4% |
| CNCCC(Oc1ccc(C(F)(F)F)cc1)c1ccccc1 (stereo not drawn) [Fluoxetine hydrochloride] | -1.65% |
| O=C1NC(=O)C(c2ccccc2)(c2ccccc2)N1 [5,5-Diphenylhydantoin] | 34.4% |
| N[C@@H](CC(=O)O)C(=O)O [L-Aspartic acid] | 45.3% |
| CC12CC3CC(C)(C1)CC(N)(C3)C2 [Memantine hydrochloride] | 32.4% |
| S=c1[nH]c(-c2ccccc2)cn1-c1ccccc1 | 41.8% |
| O=C(O)Cc1c[nH]c2ccc(O)cc12 [5-Hydroxyindolacetic acid] | 5.21% |
| Cc1ccccc1C(OCCN(C)C)c1ccccc1 (stereo not drawn) [Orphenadrine hydrochloride] | 46.5% |
| Cc1ccccc1N1C(=O)c2cc(S(N)(=O)=O)c(Cl)cc2NC1C (stereo not drawn) [Metolazone] | 35% and 50.4% |
| N[C@H](C(=O)O)c1cc(O)cc(O)c1 [(S)-3,5-Dihydroxyphenylglycine] | 12.5% |

| Structure (SMILES) | general growth inhibition |
| --- | --- |
| Cn1cnc([N+](=O)[O-])c1Sc1ncnc2[nH]cnc12 [Azathioprine] | 45.6% |
| Oc1ncnc2[nH]ncc12 [Allopurinol] | 48.1% |
| CC(C)COC(=O)OCN1C(=O)CN(CCN2CC(=O)N(COC(=O)OCC(C)C)C(=O)C2)CC1=O [Sobuzoxane] | 40.8% |
| Brc1c(NC2=NCCN2)ccc2nccnc12 | 48.7% |
| O=C1CC2(CCCC2)CC(=O)N1CCCCN1CCN(c2ncccn2)CC1 [Buspirone hydrochloride] | 34.9% |
| CC(C(=O)O)c1ccc(CC2CCCC2=O)cc1 (stereo not drawn) [loxoprofen] | 43.4% |
| COc1ccc(-c2cc(=O)c3c(O)c(OC)c(OC)cc3o2)cc1O [Eupatorin] | 19.8% |
| NCCNS(=O)(=O)c1cccc2c(Cl)cccc12 [A3 hydrochloride] | 55.6% |
| CC(C)[C@H](N)C(=O)OCC(CO)OCn1cnc2c(=O)[nH]c(N)nc21 (stereo partly drawn) [Valganciclovir hydrochloride hydrate] | 46.3% |
| Nn1nnc2ccccc21 [1-Aminobenzotriazole] | 42.1% |
| O=c1[nH]c2cc(Cl)ccc2c(O)c1-c1cccc(Oc2ccccc2)c1 | 40.4% |
| c1ccc(C(NCc2cccnc2)(c2ccccc2)c2ccccc2)cc1 | 65% |
| CN(C)CCCN1c2ccccc2Sc2ccc(Cl)cc21 [Chlorpromazine hydrochloride] | 29.8% |
| CC(=O)O[C@]1(C(C)=O)CC[C@H]2[C@@H]3C=C(Cl)C4=CC(=O)[C@@H]5C[C@@H]5[C@]4(C)[C@H]3CC[C@@]21C [Cyproterone acetate] | 33.5% |
| COC(=O)C1=C(C)NC(C)=C(C(=O)OC)C1c1cccc(NC(=O)NCCCN2CCC(c3cccc(OC)c3)CC2)c1 | 39.7% |
| CCN(CC)C(=O)c1ccc(O)c(OC)c1 [Vanillic acid diethylamide] | 27.4% |
| CN(CCOc1ccc(NS(C)(=O)=O)cc1)CCc1ccc(NS(C)(=O)=O)cc1 [Dofetilide] | 23.5% |
| CC[C@H](NC(=O)c1c(C)c(-c2ccccc2)nc2ccccc12)c1ccccc1 | 67.7% |
| CCCCC1C(=O)N(c2ccccc2)N(c2ccccc2)C1=O [Phenylbutazone] | 43.7% |

Tested on: human PEX3-PEX19 interaction (yeast two-hybrid)
Experiment: growth inhibition of yeast two-hybrid strain reporting HsPex3-HsPex19 interaction, relative to DMSO; higher = stronger inhibition of human Pex3-Pex19 interaction / growth
Conditions: 100 µM; 24 h; 3-aminotriazole 10 mM

| Structure (SMILES) | growth inhibition |
| --- | --- |
| CN1Cc2sccc2C(c2ccc(O)c(O)c2)C1 (stereo not drawn) | 41.9% |
| NCCCCN [Putrescine dihydrochloride] | 46.9% |
| Cc1cccc(C)c1OCC(C)N (stereo not drawn) [Mexiletene hydrochloride] | 47.2% |
| OCCN1CCN(CCCN2c3ccccc3Sc3ccc(Cl)cc32)CC1 [Perphenazine] | 21% |
| CC(C)Cc1ccc([C@H](C)C(=O)O)cc1 [S(+)-Ibuprofen] | 73.9% |
| CC(=O)OC[C@H]1O[C@@H]([S-])[C@H](OC(C)=O)[C@@H](OC(C)=O)[C@@H]1OC(C)=O.CCP(CC)CC.[Au+] [Auranofin] | 8.74% |
| CC1CCN=C(N)S1 (racemic) [(±)-AMT hydrochloride] | 10.1% |
| COc1ccc(/C=C/C(=O)Nc2ccccc2C(=O)O)cc1OC [Tranilast] | 0.238% |
| CN(C)c1nc(N)c(C(=O)NC(=N)N)nc1Cl [5-(N,N-Dimethyl)amiloride hydrochloride] | 44.2% |
| CC[N+](C)(C)c1cccc(O)c1 [Edrophonium chloride] | 31.3% |
| CCCCCCCCCCCCCCCCCCOCC(COP(=O)([O-])OCC[N+](C)(C)C)OC (stereo not drawn) | 85.3% |
| CNCCC(Oc1ccc(C(F)(F)F)cc1)c1ccccc1 (stereo not drawn) [Fluoxetine hydrochloride] | -8.98% |
| O=C1NC(=O)C(c2ccccc2)(c2ccccc2)N1 [5,5-Diphenylhydantoin] | 47.8% |
| N[C@@H](CC(=O)O)C(=O)O [L-Aspartic acid] | 37.4% |
| CC12CC3CC(C)(C1)CC(N)(C3)C2 [Memantine hydrochloride] | 29.9% |
| S=c1[nH]c(-c2ccccc2)cn1-c1ccccc1 | 45% |
| O=C(O)Cc1c[nH]c2ccc(O)cc12 [5-Hydroxyindolacetic acid] | 3.73% |
| Cc1ccccc1C(OCCN(C)C)c1ccccc1 (stereo not drawn) [Orphenadrine hydrochloride] | 41% |
| Cc1ccccc1N1C(=O)c2cc(S(N)(=O)=O)c(Cl)cc2NC1C (stereo not drawn) [Metolazone] | 36.8% and 45.7% |
| N[C@H](C(=O)O)c1cc(O)cc(O)c1 [(S)-3,5-Dihydroxyphenylglycine] | 10.2% |

| Structure (SMILES) | growth inhibition |
| --- | --- |
| Cn1cnc([N+](=O)[O-])c1Sc1ncnc2[nH]cnc12 [Azathioprine] | 49.4% |
| Oc1ncnc2[nH]ncc12 [Allopurinol] | 42.3% |
| CC(C)COC(=O)OCN1C(=O)CN(CCN2CC(=O)N(COC(=O)OCC(C)C)C(=O)C2)CC1=O [Sobuzoxane] | 42.3% |
| Brc1c(NC2=NCCN2)ccc2nccnc12 | 52.6% |
| O=C1CC2(CCCC2)CC(=O)N1CCCCN1CCN(c2ncccn2)CC1 [Buspirone hydrochloride] | 36.5% |
| CC(C(=O)O)c1ccc(CC2CCCC2=O)cc1 (stereo not drawn) [loxoprofen] | 40.9% |
| COc1ccc(-c2cc(=O)c3c(O)c(OC)c(OC)cc3o2)cc1O [Eupatorin] | 10.8% |
| NCCNS(=O)(=O)c1cccc2c(Cl)cccc12 [A3 hydrochloride] | 43.7% |
| CC(C)[C@H](N)C(=O)OCC(CO)OCn1cnc2c(=O)[nH]c(N)nc21 (stereo partly drawn) [Valganciclovir hydrochloride hydrate] | 35.7% |
| Nn1nnc2ccccc21 [1-Aminobenzotriazole] | 43.8% |
| O=c1[nH]c2cc(Cl)ccc2c(O)c1-c1cccc(Oc2ccccc2)c1 | 11.5% |
| c1ccc(C(NCc2cccnc2)(c2ccccc2)c2ccccc2)cc1 | 62.4% |
| CN(C)CCCN1c2ccccc2Sc2ccc(Cl)cc21 [Chlorpromazine hydrochloride] | 30.1% |
| CC(=O)O[C@]1(C(C)=O)CC[C@H]2[C@@H]3C=C(Cl)C4=CC(=O)[C@@H]5C[C@@H]5[C@]4(C)[C@H]3CC[C@@]21C [Cyproterone acetate] | 30.1% |
| COC(=O)C1=C(C)NC(C)=C(C(=O)OC)C1c1cccc(NC(=O)NCCCN2CCC(c3cccc(OC)c3)CC2)c1 | 31.1% |
| CCN(CC)C(=O)c1ccc(O)c(OC)c1 [Vanillic acid diethylamide] | 46.7% |
| CN(CCOc1ccc(NS(C)(=O)=O)cc1)CCc1ccc(NS(C)(=O)=O)cc1 [Dofetilide] | 34.9% |
| CC[C@H](NC(=O)c1c(C)c(-c2ccccc2)nc2ccccc12)c1ccccc1 | 50.5% |
| CCCCC1C(=O)N(c2ccccc2)N(c2ccccc2)C1=O [Phenylbutazone] | 22.4% |

From the supplement of paper PMC8326762, “A Small Molecule Inhibitor of Pex3–Pex19 Interaction Disrupts Glycosome Biogenesis and Causes Lethality in Trypanosoma brucei” (Frontiers in Cell and Developmental Biology, 2021)
